Test results from PubChem BioAssay AID1471 (National Center for Advancing Translational Sciences (NCATS), 2008).
Out of some 230,000 compounds screened, about 310 (0.13%) were called active. Inconclusive means that the source gave no clear call. Such entries were picked first, then a sample of the others. The call rests on the fitted dose curve; in most records, active means well fitted activation curve with a large enough effect; inconclusive means small, poorly fitted or top-dose-only effect; inactive means no such curve, though single readings can be large or run the other way. Potencies of inconclusive entries are doubtful fits and often do not repeat.
Potency means the concentration at half of the fitted maximal effect.

Test: qHTS Multiplex Assay to Identify Dual Action Probes in a Cell Model of Huntington: Cytoprotection (ATP); further: nearly all actives have a fitted effect of over 45% in size;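 on cytoprotection (ATP increase): toxic huntingtin expression switched on by the ecdysone agonist tebufenozide; % of control where 0% means no effect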
Settings: PC12 HTT-Q103 induced, ATP luminescence, 40 h; cytoprotection (ATP increase): at 56.4 µM (top of the series) unless noted
How it was run: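 PC12 cells with ecdysone-inducible HTT exon 1 Q103-GFP, induced with 100 nM tebufenozide and co-treated with library compounds in a dose series (1536-well, 1500 cells/well). Cytoprotection read as ATP content by ATPlite luminescence.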
With `Cc1noc(/C=C/N(C)C)c1S(=O)(=O)N1CCCC(C(=O)NC2CCCCC2C)C1` (centres undefined) the cytoprotection (ATP increase) was inactive: -33.8% [at 10 µM]. In the case of `Cc1ccc2nc(-c3ccc(SCC(=O)Nc4nc(C)cs4)nc3)[nH]c2c1`, the Potency is reported as inconclusive: 1260 nM [activator, single point]. With `O=C1C2C3C=CC(C3)C2C(=O)N1c1ccc(N2CCN(c3ccccn3)CC2)c([N+](=O)[O-])c1` (centres undefined) the “cytoprotection (ATP increase)” value was inactive: -119%. With `CN1CCN(c2ncc3nc(-c4ccccc4)c(=O)n(-c4ccccc4)c3n2)CC1` the “cytoprotection (ATP increase)” value was inactive: -44.2%. With `O=C(NCC(c1cccnc1)N1CCN(c2ccccc2F)CC1)c1ccccc1` (centres undefined) the Potency was inconclusive: 891 nM [activator, single point]. With `COc1ncc2nc(-c3ccc(Cl)cc3)c(=O)n(C[C@H]3CCCO3)c2n1` the “cytoprotection (ATP increase)” value was inactive: 1.24%. In the case of `CCCN[C@@H](C)C(=O)Nc1ccccc1C`, the Potency is reported as inconclusive: 355 nM [activator, full curve, poor fit]. In the case of `O=C(/C=C/c1ccccc1)NCCO`, the Potency is reported as inconclusive: 5620 nM [activator, single point]. In the case of `COC(=O)C1(C(=O)OC)Cc2conc2[C@H]1c1ccccc1`, the Potency is reported as inconclusive: 1780 nM [activator, partial curve]. In the case of `Cc1cccc(N=Nc2c(C)nn(-c3ccccc3)c2N)c1C`, the cytoprotection (ATP increase) is reported as inactive: -6.92% [at 10 µM]. In the case of `COC(=O)CCNCCSc1nnc(-c2ccco2)n1Cc1ccccc1`, the cytoprotection (ATP increase) is reported as inactive: 9.09% [at 10 µM]. In the case of `COc1ccc(C2C(C(=O)NCCN(C)C)c3cc(OC)c(OC)cc3C(=O)N2C)cc1OC` (centres undefined), the Potency is reported as inconclusive: 1260 nM [activator, partial curve]. With `O=C(OCc1cnc(Cl)s1)c1ccccc1Cl` the “cytoprotection (ATP increase)” value was inactive: 0.451%. For `CCN(CC)S(=O)(=O)c1ccc(N2CCOCC2)c(NC(=O)Cc2cccc3ccccc23)c1`, the Potency was inconclusive: 1410 nM [activator, single point]. In the case of `CCCCSc1nnc(-c2c[nH]c3ccccc23)n1C`, the Potency is reported as inconclusive: 355 nM [activator, partial curve]. With `Cc1cccnc1CN1CCN(C(=O)CCc2nnc(CCc3ccccc3)o2)CC1` the Potency was inconclusive: 100 nM [activator, partial curve, poor fit]. For `CC(=O)OC[C@@H]1O[C@H](C/C=N\O[C@@H](C)CN2CCCc3nc(C)c(C)cc32)C=C[C@@H]1OC(C)=O`, the Potency was inconclusive: 178 nM [activator, full curve, poor fit]. In the case of `O=C(O)CN(c1ccc(F)cc1)S(=O)(=O)c1ccc2c(c1)OCCO2`, the Potency is reported as active: 3160 nM. With `Cc1ccc(/C=C2\SC(=S)N(C3CCS(=O)(=O)C3)C2=O)o1` (centres undefined) the Potency was inconclusive: 35500 nM [activator, single point].
